Some results were stated once for a whole list of compounds, not compound by compound.
How the values were obtained:
[1] = Photostability testing under illumination of 4500 Lx of ingredient and 1% premix (HPLC); format: physicochemical; details: as an ingredient or as an active ingredient in premix
Description: (§1) Preparation of a sample of 1% premix of an ingredient: 1 g of an ingredient was respectively weighed out and evenly mixed with 99 g of corncob meal in a mixer to give a sample of 1% premix of an ingredient for testing.
Photostability testing: The samples of an ingredient and 1% premix thereof were respectively spread in petri dishes to form thin layers of <5 mm, and kept under an illumination of 4500 Lx. Three replications for a sample were sampled in parallel on day 5 and day 10 for HPLC analysis.
(§2) 25.0 mg of an ingredient was accurately weighed out and dissolved in an appropriate amount of methanol by ultrasonication. The solution was then transferred to a volumetric flask and diluted to 25 mL with methanol to give a stock solution. The samples from the stock solution were diluted with methanol respectively to a concentration of 100 ppm, 500 ppm, and 1000 ppm of work solution, and then the working solutions were filtered by 0.22 μm organic membranes. Between the concentration of a sample and the response value of HPLC peak area thereof, the linearity was adjusted and detected to give a standard curve.
(§3) 2.3: Preparation of Sample Solution 25.0 mg of an ingredient and 2.0000 g of a sample of 1% premix thereof were respectively accurately weighed out, and dissolved in 25 mL of methanol by ultrasonication for 10 minutes. The resulting solutions were filtered by organic membranes and then analyzed by HPLC. 2.4: Testing Conditions for HPLC • Column: Symmetry Cis column (Waters; 250 mm*4.6 mm, 5 μm). • Mobile phase: 0.02% phosphoric acid:methanol=5:95 (v:v). • Wavelength: 235 nm. • Temperature of the Column: 25° C. • Injection volume: 10 μL. • Flow rate: 1 mL/min. 3: Results

[2] = Thermal stability testing at 60° C. of ingredient and 1% premix (HPLC); format: physicochemical; details: as an ingredient or as an active ingredient in premix
Procedure: as §1
Thermal stability testing at 60° C.: The samples of an ingredient and 1% premix thereof were respectively spread in petri dishes to form thin layers of <5 mm, and kept at 60° C. Two replications for a sample were taken in parallel on day 5 and day 10 for HPLC analysis.
as §2, §3

| SMILES | change of active ingredient [1] | change of active ingredient [2] |
| --- | --- | --- |
| CCCC(=O)OC1=C(CCC(C)C)C(=O)C(CCC(C)C)(CCC(C)C)C(O)=C1C(=O)C(C)C [hexahydro-colupulone mono-butyrate] | not more than 5% | not more than 5% |
| CC(=O)OC1=C(CCC(C)C)C(=O)C(CCC(C)C)(CCC(C)C)C(O)=C1C(=O)C(C)C [hexahydro-colupulone mono-acetate, Hexahydro-Colupulone Mono-Acetate] | not more than 5% | not more than 5% |
| CCC(=O)OC1=C(CCC(C)C)C(=O)C(CCC(C)C)(CCC(C)C)C(O)=C1C(=O)C(C)C [hexahydro-colupulone mono-propionate] | not more than 5% | not more than 5% |

Source: US12673915B2, “Precursor compound of hexahydro-beta-acid component compound, feed composition and use thereof” (WISORIG TECHNOLOGIES PTE. LIMITED, priority 2020, dated 2026)
